Reference: article doi:10.1101/2022.07.24.501325

Chains of the proteins cited; added tags and fusions are not shown. Lines headed by an entry give the natural chain unless they say otherwise; changes in a name come on top.
UniProt Q9NZN8: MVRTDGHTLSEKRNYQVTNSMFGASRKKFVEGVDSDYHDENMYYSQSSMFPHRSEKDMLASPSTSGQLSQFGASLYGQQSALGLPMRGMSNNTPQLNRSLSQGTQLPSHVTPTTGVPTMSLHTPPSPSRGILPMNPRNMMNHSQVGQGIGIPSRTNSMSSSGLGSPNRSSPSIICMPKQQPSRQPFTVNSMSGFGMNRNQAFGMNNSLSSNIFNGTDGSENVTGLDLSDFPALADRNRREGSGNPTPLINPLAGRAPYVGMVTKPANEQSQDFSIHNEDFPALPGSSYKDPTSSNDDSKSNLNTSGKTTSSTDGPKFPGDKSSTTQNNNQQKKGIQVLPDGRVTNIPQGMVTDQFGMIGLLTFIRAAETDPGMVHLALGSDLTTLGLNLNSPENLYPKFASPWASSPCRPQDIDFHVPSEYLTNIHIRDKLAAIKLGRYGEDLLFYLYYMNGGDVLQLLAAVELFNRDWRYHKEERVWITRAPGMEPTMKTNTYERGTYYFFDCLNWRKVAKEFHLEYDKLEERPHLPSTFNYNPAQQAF
UniProt Q9ULM6: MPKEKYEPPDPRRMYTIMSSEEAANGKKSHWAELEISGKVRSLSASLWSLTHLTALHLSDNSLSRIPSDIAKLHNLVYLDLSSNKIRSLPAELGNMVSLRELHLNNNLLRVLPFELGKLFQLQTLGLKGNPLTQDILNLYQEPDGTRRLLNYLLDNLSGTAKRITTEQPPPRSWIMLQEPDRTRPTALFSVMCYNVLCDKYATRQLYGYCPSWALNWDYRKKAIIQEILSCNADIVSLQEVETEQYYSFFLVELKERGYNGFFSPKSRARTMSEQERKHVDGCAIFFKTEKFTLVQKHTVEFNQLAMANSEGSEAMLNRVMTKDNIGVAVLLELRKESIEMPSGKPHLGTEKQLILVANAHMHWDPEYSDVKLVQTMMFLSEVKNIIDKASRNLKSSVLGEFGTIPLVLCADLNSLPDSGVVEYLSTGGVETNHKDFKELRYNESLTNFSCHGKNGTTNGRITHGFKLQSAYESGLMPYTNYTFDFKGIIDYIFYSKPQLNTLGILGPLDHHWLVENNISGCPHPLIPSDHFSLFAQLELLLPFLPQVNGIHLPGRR
UniProt Q92600: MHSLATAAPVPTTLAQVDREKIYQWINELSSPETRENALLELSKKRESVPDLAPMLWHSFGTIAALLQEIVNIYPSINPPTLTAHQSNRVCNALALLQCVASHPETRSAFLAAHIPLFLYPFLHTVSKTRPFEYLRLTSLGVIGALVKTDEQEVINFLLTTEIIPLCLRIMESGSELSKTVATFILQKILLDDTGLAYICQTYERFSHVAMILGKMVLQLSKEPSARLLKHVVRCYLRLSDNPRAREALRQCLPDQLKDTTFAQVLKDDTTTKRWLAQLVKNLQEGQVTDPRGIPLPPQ
UniProt A5YKK6: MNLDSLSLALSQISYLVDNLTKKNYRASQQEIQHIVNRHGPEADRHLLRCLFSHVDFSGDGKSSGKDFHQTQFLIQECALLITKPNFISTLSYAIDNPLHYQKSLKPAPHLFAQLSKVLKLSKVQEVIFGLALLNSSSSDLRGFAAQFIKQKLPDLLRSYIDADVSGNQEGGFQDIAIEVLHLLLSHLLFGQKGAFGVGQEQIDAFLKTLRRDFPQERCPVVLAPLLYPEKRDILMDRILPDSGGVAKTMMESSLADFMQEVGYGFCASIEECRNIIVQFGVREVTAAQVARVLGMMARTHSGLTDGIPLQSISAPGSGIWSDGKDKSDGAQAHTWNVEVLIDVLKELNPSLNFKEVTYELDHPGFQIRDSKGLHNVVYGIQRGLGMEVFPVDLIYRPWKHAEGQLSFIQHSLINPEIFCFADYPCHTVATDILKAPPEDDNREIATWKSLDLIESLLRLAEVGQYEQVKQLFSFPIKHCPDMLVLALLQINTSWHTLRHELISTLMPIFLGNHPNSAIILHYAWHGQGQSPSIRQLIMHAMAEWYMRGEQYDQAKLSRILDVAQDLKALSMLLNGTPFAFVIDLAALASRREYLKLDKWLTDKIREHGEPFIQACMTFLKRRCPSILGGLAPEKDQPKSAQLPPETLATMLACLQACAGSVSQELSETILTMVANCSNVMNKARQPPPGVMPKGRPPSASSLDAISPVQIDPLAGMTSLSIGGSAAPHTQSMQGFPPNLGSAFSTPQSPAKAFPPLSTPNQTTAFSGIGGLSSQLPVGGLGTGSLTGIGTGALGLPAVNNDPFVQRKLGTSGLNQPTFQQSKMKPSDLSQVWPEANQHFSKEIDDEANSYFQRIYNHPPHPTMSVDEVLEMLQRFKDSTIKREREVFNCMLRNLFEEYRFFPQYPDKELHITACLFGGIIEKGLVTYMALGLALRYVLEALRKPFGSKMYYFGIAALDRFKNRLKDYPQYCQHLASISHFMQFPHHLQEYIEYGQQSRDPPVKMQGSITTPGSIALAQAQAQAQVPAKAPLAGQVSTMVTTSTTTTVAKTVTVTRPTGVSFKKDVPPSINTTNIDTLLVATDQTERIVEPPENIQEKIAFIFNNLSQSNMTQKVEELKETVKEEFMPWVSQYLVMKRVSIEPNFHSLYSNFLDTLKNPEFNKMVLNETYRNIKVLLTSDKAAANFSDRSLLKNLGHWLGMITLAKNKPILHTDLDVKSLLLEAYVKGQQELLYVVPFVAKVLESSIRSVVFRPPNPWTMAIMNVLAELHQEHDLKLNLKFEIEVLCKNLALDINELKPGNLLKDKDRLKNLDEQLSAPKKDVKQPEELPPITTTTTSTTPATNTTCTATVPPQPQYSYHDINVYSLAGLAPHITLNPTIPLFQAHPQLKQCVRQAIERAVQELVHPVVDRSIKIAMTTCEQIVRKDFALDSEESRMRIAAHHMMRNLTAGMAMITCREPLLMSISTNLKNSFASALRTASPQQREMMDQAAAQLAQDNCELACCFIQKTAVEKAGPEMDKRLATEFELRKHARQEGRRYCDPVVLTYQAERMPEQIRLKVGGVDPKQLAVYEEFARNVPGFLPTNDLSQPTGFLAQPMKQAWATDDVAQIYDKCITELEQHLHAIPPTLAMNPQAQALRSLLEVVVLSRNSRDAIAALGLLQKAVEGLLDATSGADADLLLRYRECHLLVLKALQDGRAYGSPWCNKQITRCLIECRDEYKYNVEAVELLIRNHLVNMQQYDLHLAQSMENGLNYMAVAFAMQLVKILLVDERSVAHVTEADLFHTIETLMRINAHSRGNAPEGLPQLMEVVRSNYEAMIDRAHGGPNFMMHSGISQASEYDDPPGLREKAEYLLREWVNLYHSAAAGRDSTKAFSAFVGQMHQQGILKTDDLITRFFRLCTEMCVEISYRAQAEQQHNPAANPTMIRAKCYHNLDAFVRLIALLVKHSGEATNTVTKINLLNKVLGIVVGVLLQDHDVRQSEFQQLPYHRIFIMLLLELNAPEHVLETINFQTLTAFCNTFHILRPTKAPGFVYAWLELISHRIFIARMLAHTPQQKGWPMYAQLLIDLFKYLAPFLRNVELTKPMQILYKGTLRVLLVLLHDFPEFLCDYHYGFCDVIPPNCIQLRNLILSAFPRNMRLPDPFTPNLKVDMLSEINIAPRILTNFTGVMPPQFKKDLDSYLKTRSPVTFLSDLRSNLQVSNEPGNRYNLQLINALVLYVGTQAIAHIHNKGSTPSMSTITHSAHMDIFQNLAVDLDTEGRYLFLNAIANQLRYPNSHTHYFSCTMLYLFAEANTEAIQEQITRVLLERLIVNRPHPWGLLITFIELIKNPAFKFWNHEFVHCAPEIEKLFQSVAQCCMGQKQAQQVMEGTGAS
UniProt O75175: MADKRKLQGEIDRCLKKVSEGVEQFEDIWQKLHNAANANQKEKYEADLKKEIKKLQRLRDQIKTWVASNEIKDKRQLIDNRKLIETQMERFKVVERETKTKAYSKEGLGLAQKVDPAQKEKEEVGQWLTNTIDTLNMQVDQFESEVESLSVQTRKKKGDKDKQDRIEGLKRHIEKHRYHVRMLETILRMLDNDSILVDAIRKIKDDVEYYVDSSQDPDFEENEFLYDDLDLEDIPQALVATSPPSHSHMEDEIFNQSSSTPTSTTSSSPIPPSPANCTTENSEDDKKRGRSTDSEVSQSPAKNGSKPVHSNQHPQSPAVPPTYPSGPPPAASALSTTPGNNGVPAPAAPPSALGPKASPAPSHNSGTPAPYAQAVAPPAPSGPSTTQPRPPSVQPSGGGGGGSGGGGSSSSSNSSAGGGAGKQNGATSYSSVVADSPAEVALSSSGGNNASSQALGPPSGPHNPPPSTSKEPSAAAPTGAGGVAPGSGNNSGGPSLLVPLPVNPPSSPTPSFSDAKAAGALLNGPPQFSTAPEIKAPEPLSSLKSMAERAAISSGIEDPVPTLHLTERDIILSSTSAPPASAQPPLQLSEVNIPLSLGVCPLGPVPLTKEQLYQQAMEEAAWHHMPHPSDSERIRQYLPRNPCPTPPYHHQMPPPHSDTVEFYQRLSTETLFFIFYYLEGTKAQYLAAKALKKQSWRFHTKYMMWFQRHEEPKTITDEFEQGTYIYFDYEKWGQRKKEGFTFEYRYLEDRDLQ

Columns and labels:
Experiment in all cases: cross-linking
[1] = molecular target: CNOT2 subunit of human CCR4-NOT (human) (UniProt Q9NZN8)
[2] = molecular target: CNOT6 subunit of human CCR4-NOT (human) (UniProt Q9ULM6)
[3] = molecular target: CNOT9 subunit of human CCR4-NOT (human) (UniProt Q92600)
[4] = molecular target: CNOT1 subunit of human CCR4-NOT (human) (UniProt A5YKK6)

binding [1]: binds | binding [2]: binds | binding [3]: binds | binding [4]: binds
Substance: CNOT3 subunit of human CCR4-NOT (from UniProt O75175)

These are yes or no findings as the source states them, for the method shown. Binding can be weak; no strength is given.
